Results reported in the supplement of paper PMC10849652.
The other results are listed elsewhere or left out.

Amino acid sequences for entries named in this document (tags omitted). A change or cut given only in a name is not applied to a line headed by its entry.
UniProt Q9NZM4: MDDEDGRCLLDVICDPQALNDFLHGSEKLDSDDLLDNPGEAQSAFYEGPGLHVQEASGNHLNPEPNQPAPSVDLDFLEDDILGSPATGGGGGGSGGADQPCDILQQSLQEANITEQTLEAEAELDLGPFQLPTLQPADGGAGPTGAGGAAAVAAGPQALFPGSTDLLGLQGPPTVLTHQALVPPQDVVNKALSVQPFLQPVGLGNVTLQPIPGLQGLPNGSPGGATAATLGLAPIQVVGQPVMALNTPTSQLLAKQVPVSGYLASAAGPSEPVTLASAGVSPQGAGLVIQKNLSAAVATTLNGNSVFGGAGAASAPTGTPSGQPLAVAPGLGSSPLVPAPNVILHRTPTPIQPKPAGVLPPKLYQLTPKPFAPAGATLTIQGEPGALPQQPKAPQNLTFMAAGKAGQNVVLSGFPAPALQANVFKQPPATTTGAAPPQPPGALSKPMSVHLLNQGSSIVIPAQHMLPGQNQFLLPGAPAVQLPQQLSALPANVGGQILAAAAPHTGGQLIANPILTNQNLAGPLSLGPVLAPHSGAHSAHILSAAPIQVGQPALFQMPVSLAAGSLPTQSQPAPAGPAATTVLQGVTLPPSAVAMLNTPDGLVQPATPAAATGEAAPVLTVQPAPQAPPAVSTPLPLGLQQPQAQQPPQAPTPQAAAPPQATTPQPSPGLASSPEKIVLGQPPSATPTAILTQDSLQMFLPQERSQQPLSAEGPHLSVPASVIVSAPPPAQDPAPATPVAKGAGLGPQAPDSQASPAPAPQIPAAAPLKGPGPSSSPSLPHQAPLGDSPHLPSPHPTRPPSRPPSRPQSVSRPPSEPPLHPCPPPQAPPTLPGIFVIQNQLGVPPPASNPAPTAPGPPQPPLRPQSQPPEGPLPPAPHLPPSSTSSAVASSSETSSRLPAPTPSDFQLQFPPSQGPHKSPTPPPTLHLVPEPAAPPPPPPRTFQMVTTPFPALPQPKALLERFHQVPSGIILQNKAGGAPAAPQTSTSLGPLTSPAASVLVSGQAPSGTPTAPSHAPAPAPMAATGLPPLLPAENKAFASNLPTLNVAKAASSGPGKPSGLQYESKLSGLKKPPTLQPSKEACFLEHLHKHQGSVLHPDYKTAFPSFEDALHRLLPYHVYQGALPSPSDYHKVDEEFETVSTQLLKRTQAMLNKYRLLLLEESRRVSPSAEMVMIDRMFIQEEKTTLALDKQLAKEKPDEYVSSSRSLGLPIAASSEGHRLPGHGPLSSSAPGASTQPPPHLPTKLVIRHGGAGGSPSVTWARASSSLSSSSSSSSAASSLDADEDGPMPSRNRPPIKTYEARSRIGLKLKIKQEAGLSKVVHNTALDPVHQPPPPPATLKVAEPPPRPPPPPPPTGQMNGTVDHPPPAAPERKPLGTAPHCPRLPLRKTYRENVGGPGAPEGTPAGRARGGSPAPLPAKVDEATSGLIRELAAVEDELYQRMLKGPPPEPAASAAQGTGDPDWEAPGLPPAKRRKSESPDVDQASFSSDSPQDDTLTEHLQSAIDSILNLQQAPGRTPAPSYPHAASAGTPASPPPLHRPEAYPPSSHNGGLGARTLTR
UniProt Q9NRL2: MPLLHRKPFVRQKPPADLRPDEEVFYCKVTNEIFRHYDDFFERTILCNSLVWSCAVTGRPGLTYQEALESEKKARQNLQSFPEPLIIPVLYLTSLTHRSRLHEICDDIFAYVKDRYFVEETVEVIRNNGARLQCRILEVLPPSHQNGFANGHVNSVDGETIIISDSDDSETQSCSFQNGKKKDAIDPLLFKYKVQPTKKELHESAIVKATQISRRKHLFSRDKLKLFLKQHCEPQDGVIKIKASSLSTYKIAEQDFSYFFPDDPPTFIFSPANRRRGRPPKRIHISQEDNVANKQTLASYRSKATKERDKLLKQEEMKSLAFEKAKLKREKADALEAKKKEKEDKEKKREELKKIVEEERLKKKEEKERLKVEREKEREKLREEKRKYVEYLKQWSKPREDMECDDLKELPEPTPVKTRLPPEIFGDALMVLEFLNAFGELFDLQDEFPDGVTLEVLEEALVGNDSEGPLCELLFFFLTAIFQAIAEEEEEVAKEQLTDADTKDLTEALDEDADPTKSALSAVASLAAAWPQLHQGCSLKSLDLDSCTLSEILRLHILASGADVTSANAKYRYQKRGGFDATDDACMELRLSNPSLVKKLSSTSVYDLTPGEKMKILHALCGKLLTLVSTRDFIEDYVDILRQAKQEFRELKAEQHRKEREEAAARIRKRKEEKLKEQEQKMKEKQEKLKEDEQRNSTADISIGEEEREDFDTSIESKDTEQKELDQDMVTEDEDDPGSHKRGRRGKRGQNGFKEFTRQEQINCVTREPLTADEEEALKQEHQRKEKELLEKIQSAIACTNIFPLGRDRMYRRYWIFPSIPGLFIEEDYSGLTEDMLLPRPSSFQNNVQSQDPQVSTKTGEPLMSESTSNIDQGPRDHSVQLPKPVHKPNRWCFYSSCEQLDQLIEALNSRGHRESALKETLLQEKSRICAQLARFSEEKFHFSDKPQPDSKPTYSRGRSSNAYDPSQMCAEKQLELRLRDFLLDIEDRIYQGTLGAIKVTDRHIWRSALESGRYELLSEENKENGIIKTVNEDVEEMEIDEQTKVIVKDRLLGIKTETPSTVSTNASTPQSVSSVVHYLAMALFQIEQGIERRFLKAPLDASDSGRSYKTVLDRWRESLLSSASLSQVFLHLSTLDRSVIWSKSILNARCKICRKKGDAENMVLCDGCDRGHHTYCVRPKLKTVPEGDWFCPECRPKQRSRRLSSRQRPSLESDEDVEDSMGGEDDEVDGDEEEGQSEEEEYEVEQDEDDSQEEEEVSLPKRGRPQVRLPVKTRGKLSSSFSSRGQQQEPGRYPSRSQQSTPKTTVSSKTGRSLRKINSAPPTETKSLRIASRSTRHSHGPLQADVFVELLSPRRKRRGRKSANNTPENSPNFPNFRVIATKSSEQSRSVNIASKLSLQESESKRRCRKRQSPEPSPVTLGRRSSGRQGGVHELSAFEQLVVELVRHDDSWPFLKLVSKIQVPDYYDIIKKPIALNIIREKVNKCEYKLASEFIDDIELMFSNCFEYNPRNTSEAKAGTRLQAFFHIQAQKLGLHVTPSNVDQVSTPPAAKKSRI
UniProt O00499: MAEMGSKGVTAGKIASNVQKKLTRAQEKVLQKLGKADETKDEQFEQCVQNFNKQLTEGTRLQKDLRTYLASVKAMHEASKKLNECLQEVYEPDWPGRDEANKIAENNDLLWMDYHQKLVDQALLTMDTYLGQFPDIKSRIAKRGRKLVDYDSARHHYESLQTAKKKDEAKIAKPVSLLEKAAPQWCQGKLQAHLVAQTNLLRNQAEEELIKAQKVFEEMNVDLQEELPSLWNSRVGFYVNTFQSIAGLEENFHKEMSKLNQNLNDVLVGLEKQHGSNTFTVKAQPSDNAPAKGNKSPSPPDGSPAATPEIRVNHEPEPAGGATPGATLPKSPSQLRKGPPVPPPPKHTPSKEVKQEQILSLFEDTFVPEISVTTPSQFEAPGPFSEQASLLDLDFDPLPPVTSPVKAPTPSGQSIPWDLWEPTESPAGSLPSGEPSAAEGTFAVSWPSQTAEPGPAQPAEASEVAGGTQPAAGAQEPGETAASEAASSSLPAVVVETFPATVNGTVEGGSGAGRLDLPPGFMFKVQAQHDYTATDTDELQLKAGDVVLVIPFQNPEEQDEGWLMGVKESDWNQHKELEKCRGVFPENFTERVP
UniProt O00512: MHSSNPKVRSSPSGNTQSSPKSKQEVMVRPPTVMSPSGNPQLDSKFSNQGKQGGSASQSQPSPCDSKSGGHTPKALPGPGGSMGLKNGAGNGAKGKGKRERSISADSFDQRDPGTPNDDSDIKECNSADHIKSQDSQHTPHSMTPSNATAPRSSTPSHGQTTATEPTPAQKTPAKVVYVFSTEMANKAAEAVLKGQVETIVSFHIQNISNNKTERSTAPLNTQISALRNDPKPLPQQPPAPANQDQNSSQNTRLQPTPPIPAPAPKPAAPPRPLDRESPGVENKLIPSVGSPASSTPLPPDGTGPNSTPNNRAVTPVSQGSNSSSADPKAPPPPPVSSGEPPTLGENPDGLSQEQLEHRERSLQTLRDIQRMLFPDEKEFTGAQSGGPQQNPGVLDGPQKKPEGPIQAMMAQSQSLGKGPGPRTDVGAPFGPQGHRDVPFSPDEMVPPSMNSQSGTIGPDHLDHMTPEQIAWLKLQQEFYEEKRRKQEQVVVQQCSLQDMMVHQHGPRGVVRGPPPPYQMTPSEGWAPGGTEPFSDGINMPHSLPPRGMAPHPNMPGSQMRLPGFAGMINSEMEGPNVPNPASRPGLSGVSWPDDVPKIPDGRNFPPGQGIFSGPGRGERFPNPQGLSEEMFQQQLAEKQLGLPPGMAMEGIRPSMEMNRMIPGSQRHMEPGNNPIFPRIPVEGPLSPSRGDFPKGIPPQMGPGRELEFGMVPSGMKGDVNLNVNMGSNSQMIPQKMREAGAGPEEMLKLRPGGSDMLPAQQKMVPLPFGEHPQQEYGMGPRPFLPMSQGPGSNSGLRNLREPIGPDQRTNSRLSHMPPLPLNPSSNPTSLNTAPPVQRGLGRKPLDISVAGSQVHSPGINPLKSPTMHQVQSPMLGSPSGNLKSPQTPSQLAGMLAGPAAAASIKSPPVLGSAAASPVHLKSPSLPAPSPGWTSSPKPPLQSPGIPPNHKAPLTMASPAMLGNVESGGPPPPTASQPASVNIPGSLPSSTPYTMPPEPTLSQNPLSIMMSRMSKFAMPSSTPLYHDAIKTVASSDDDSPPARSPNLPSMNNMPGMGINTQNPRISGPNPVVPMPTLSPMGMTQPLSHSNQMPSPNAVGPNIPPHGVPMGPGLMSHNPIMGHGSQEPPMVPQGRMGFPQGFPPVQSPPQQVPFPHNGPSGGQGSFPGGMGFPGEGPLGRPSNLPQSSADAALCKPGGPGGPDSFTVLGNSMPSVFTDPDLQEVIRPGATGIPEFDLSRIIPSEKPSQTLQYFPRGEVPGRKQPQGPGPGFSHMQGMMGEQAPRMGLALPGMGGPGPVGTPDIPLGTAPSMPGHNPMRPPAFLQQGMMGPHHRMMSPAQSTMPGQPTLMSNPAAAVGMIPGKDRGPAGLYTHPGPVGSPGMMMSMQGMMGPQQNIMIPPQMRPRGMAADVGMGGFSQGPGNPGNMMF
UniProt Q9NPI1: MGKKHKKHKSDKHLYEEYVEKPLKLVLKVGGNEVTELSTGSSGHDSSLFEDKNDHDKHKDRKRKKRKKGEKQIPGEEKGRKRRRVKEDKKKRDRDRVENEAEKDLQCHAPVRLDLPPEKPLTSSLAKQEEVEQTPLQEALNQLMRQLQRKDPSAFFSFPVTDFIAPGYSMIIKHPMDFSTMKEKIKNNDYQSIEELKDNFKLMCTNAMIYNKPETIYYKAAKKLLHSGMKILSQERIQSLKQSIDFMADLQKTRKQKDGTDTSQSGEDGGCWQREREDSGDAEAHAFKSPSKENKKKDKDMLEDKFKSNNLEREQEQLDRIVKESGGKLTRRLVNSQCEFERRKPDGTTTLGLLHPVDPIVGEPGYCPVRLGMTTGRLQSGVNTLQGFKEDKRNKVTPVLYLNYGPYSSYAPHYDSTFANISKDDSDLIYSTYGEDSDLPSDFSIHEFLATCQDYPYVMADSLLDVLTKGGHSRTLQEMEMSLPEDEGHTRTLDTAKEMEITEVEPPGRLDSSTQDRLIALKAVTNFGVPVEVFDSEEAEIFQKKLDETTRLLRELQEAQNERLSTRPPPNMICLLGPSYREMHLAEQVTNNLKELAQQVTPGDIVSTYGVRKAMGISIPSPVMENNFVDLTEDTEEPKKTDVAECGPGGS
UniProt P10415, whole entry, looked up: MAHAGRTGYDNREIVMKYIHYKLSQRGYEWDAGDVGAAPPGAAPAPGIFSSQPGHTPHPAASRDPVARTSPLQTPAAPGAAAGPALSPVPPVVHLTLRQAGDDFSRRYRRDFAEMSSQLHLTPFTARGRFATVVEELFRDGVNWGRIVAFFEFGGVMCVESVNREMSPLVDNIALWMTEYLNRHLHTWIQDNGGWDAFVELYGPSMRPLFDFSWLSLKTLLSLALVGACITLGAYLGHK
UniProt Q9HAW0, whole entry, looked up: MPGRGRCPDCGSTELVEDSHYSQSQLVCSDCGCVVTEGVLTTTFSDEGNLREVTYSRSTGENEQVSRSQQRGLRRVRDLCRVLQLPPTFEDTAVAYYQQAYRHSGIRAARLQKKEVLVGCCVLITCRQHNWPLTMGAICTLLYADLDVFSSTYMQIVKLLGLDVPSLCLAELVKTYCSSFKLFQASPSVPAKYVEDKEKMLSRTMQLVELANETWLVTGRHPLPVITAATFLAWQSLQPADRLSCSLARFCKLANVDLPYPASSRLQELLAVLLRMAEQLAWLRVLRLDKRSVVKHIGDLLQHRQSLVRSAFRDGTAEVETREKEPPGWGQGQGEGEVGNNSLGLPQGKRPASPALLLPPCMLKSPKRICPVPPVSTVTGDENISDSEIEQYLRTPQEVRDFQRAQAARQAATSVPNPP

What was measured:
Assay in all cases: log2 fold change, soluble protein after heating vs DMSO (PISA); higher = thermal stabilisation; K562 lysate, 10 uM; active = over 0.2 and 3.5 SD of the protein, either way, in both replicates (recomputed)
[1] = compound: CCCS(=O)(=O)Nc1ccc(F)c(C(=O)c2c[nH]c3ncc(Cl)cc23)c1F
Summary of the method: (§1)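 Soluble protein was defined as the supernatant remaining after 21,000xg for 90 min, following pooling of heated aliquots and adjustment to 0.5% NP-40 at 4°C. Before that, crude K562 extract at 1 mg/mL protein in PBS pH 7.4 with 1 mM MgCl2 was treated with 10 μM compound for 30 min and heated for 3 min across 48°C-58°C. Quantification used TMTpro 16plex LC-MS/MS with channel sums equalised, and values are log-two fold changes in thermal stability relative to solvent controls from duplicates.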

barasertib = compound: CCN(CCCOc1ccc2c(Nc3cc(CC(=O)Nc4cccc(F)c4)[nH]n3)ncnc2c1)CCOP(=O)(O)O [barasertib]
Summary of the method: as §1

volasertib = compound: CC[C@@H]1C(=O)N(C)c2cnc(Nc3ccc(C(=O)N[C@H]4CC[C@H](N5CCN(CC6CC6)CC5)CC4)cc3OC)nc2N1C(C)C [volasertib]
Summary of the method: as §1

[2] = compound: CCn1c(C(=O)N(C2CC2)C2CC2)cc2c3c(ncn3C)c(Nc3cc(C)n(C)n3)nc21
Summary of the method: as §1

[3] = compound: CCn1cc(-c2ccnc3[nH]c(-c4cccc(CN(C)C)c4)cc23)c(-c2ccc(NC(=O)N(C)C)cc2)n1
Summary of the method: as §1

[4] = compound: CN1CCC(CNc2ccc3ncc(-c4cccc(OC(F)(F)F)c4)n3n2)CC1
Summary of the method: as §1

saracatinib = compound: CN1CCN(CCOc2cc(OC3CCOCC3)c3c(Nc4c(Cl)ccc5c4OCO5)ncnc3c2)CC1 [saracatinib]
Summary of the method: as §1

sotrastaurin = compound: CN1CCN(c2nc(C3=C(c4c[nH]c5ccccc45)C(=O)NC3=O)c3ccccc3n2)CC1 [sotrastaurin]
Summary of the method: as §1

alvocidib = compound: CN1CC[C@H](c2c(O)cc(O)c3c(=O)cc(-c4ccccc4Cl)oc23)[C@H](O)C1 [alvocidib]
Summary of the method: as §1

Tubastatin A = compound: CN1CCc2c(c3ccccc3n2Cc2ccc(C(=O)NO)cc2)C1 [Tubastatin A]
Summary of the method: as §1

[5] = compound: CNC(=O)C1=CC=CC=C1NC2=NC(=NC=C2Cl)NC3=C(C=C(C=C3)N4CCOCC4)OC
Summary of the method: as §1

[6] = compound: CNc1nc(-c2ccc3c(N)n[nH]c3c2)cc(N2C[C@@H](C(=O)NC3CCCCC3)CC[C@H]2C)n1
Summary of the method: as §1

[7] = compound: COc1cc2nc(-c3cc(F)ccc3O)nc(N[C@@H]3CNC[C@H]3C(C)(C)O)c2cc1OC
Summary of the method: as §1

vemurafenib = compound: CCCS(=O)(=O)Nc1ccc(F)c(C(=O)c2c[nH]c3ncc(-c4ccc(Cl)cc4)cc23)c1F [vemurafenib]
Summary of the method: as §1

[8] = compound: CC[C@@H]1C(=O)N(C)c2cnc(Nc3ccc(C(=O)NC4CCN(C)CC4)cc3OC)nc2N1C1CCCC1
Summary of the method: as §1

defactinib = compound: CNC(=O)c1ccc(Nc2ncc(C(F)(F)F)c(NCc3nccnc3N(C)S(C)(=O)=O)n2)cc1 [defactinib]
Summary of the method: as §1

encorafenib = compound: COC(=O)N[C@@H](C)CNc1nccc(-c2cn(C(C)C)nc2-c2cc(Cl)cc(NS(C)(=O)=O)c2F)n1 [encorafenib]
Summary of the method: as §1

[9] = compound: COC(=O)[C@H](CCSC)NC(=O)C1=C(C=C(C=C1)NC[C@H](CS)N)C2=CC=CC=C2
Summary of the method: as §1

alisertib = compound: COc1cc(Nc2ncc3c(n2)-c2ccc(Cl)cc2C(c2c(F)cccc2OC)=NC3)ccc1C(=O)O [alisertib]
Summary of the method: as §1

gefitinib = compound: COc1cc2ncnc(Nc3ccc(F)c(Cl)c3)c2cc1OCCCN1CCOCC1 [gefitinib]
Summary of the method: as §1

Measured: log2 fold change

BICRA (UniProt Q9NZM4)
active: [6] 0.884
inactive: [1] 0.055 | barasertib 0.165 | volasertib 0.036 | [2] -0.233 | [3] -0.133 | [4] -0.048 | saracatinib 0.02 | sotrastaurin 0 | alvocidib -0.113 | Tubastatin A 0.335 | [5] 0.101 | [7] 0.132

BAZ1A (UniProt Q9NRL2)
inactive: vemurafenib 0.085 | barasertib 0.082 | [8] 0.007 | [2] -0.051 | [3] -0.151 | [4] 0.049 | saracatinib 0.01 | sotrastaurin 0.042 | alvocidib -0.078 | Tubastatin A 0.006 | [5] -0.067 | defactinib -0.07 | [6] -0.033 | encorafenib -0.072 | [9] 0.15 | alisertib 0.009 | gefitinib 0.038

BRCA2 (UniProt P51587)
inactive: vemurafenib 0.052 | barasertib 0.242 | [8] 0.152 | [2] -0.09 | [3] -0.005 | [4] 0.127 | saracatinib 0.015 | sotrastaurin -0.064 | alvocidib -0.106 | Tubastatin A -0.068 | [5] -0.008 | defactinib 0.076 | [6] 0.285 | encorafenib -0.014 | [9] 0.047 | alisertib -0.006 | gefitinib -0.16

BRMS1L (UniProt Q5PSV4)
inactive: vemurafenib 0.106 | [1] 0.133 | [8] 0.096 | volasertib -0.091 | defactinib 0.161 | encorafenib -0.044 | [9] 0.078 | [7] -0.103

BCL2L11 (UniProt O43521)
inactive: vemurafenib -0.004 | barasertib 0.447 | [3] 0.04 | [4] -0.095 | sotrastaurin -0.018 | alvocidib -0.018 | defactinib -0.028

BIRC6, A0A3B3IUB9
inactive: vemurafenib -0.081 | [1] 0.087 | [8] -0.108 | volasertib -0.004 | [2] 0.047 | [3] 0.07 | [4] 0.069 | saracatinib 0.06 | sotrastaurin -0.13 | alvocidib 0.081 | Tubastatin A -0.037 | [5] -0.028 | defactinib 0.138 | [6] -0.156 | encorafenib 0.115 | [9] -0.023 | [7] -0.186

BAG6 (UniProt F6WML8)
inactive: vemurafenib 0.039 | [8] 0.12 | [2] 0.013 | Tubastatin A -0.077 | [5] -0.203 | defactinib 0.119 | encorafenib -0.136 | [9] 0.018

BAD (UniProt Q92934)
inactive: vemurafenib 0.07 | barasertib -0.009 | [8] -0.089 | [2] -0.005 | [3] -0.065 | [4] 0.041 | saracatinib 0.172 | sotrastaurin -0.046 | alvocidib -0.02 | Tubastatin A 0.029 | [5] 0.05 | defactinib 0.099 | [6] -0.161 | encorafenib 0.022 | [9] 0.024

BCAP31, A0A2R8Y5M6
inactive: vemurafenib -0.062 | [8] 0.155 | [3] 0.049 | [4] -0.179 | alvocidib -0.061 | defactinib -0.204 | encorafenib -0.005 | [9] 0.057

BIN1 (UniProt O00499)
inactive: vemurafenib -0.023 | [1] 0.172 | [8] -0.016 | volasertib -0.214 | [3] -0.235 | [4] 0.139 | alvocidib -0.084 | [5] -0.022 | defactinib 0 | encorafenib 0.156 | [9] -0.003 | alisertib -0.028 | [7] -0.117 | gefitinib -0.128

BCL9 (UniProt O00512)
inactive: vemurafenib -0.101 | barasertib 0.029 | [2] -0.266 | [3] -0.043 | [4] -0.079 | sotrastaurin 0.016 | alvocidib -0.051 | Tubastatin A 0.239 | [5] -0.046 | defactinib -0.005

BCORL1 isoform 3 (UniProt Q5H9F3)
inactive: vemurafenib 0.123 | [8] -0.033 | [2] -0.018 | [3] -0.546 | [4] 0.344 | saracatinib -0.082 | sotrastaurin -0.099 | alvocidib -0.328 | Tubastatin A -0.006 | [5] -0.064 | defactinib -0.213 | [6] 0.113 | encorafenib 0.022 | [9] 0.021

BPNT1 (UniProt A6NF51)
inactive: vemurafenib -0.058 | barasertib 0.056 | [8] -0.049 | [2] -0.052 | saracatinib 0.092 | Tubastatin A -0.084 | [5] 0.109 | defactinib 0.006 | [6] 0.068 | encorafenib 0.245 | [9] 0.009

Pulled one by one from the entries so far (two):
BCL9 (UniProt O00512)
inactive: vemurafenib -0.101 | barasertib 0.029 | [2] -0.266 | [3] -0.043 | [4] -0.079 | sotrastaurin 0.016 | alvocidib -0.051 | Tubastatin A 0.239 | [5] -0.046 | defactinib -0.005

BPNT1 (UniProt A6NF51)
inactive: vemurafenib -0.058 | barasertib 0.056 | [8] -0.049 | [2] -0.052 | saracatinib 0.092 | Tubastatin A -0.084 | [5] 0.109 | defactinib 0.006 | [6] 0.068 | encorafenib 0.245 | [9] 0.009

(listing goes on)

BAHCC1 (UniProt Q9P281)
inactive: vemurafenib 0.11 | [1] 0.004 | [8] -0.247 | volasertib 0 | [3] 0.415 | [4] 0.219 | saracatinib 0.025 | sotrastaurin 0.127 | alvocidib -0.569 | [5] -0.135 | defactinib -0.208 | [6] -0.054 | encorafenib 0.038 | [9] -0.024 | alisertib 0.085 | [7] 0.076 | gefitinib 0.095

BRD7 isoform 2 (UniProt Q9NPI1)
inactive: [1] 0.004 | barasertib -0.026 | volasertib -0.005 | [2] -0.034 | [3] 0.224 | [4] 0.009 | saracatinib -0.067 | sotrastaurin 0.015 | alvocidib -0.014 | Tubastatin A 0.002 | [5] 0.075 | [6] 0.025 | alisertib -0.065 | [7] 0 | gefitinib -0.108

BCL2 (UniProt P10415)
inactive: barasertib 0.088 | [2] -0.001 | Tubastatin A -0.067

BRF2 (UniProt Q9HAW0)
inactive: [8] 0.006 | encorafenib 0.4 | [9] -0.075

BEGAIN, A0A1B0GVM0
inactive: [8] -0.063 | [2] 0.052 | sotrastaurin 0.024 | Tubastatin A 0.038 | [5] -0.158 | encorafenib 0.004 | [9] 0.037 | alisertib -0.064 | gefitinib -0.023
